This is an account of results in patent US20130116146A1 (University of California, published 2013).

These are yes or no findings as the source states them, for the method shown. Where a sequence is shown, tags or fusion partners need not be part of it.

In this assay the target is T1, Polycomb protein chromodomain (a.a. 1-90), GST-tagged fusion protein (Drosophila melanogaster) (UniProt P26017).
T1 sequence (looked up): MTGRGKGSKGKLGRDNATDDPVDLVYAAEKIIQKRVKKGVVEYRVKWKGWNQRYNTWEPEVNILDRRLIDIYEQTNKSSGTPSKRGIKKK
Nature of the assay: peptide microarray, GST-Polycomb chromodomain overlaid on trimethylated peptides printed in triplicate.

For the molecule VTYTEHAKR (trimethyl-lysine at lysine site 77 (8th residue of the peptide)) […, H4_DROME lysine site 77, trimethylated], the binding entry is reported as “no binding (tested: p-value cutoff of 0.001)”.
DNIQGITKP (trimethyl-lysine at lysine site 31 (8th residue of the peptide)) […, H4_DROME lysine site 31, trimethylated]: the binding result is listed as “no binding (tested: p-value cutoff of 0.001)”.
HAVSEGTKA (trimethyl-lysine at lysine site 113 (8th residue of the peptide)) […, H2B_DROME lysine site 113, trimethylated]: the binding result is “no binding (tested: p-value cutoff of 0.001)”.
As for GVIPHIHKS (trimethyl-lysine at lysine site 115 (8th residue of the peptide)) […, H2AV_DROME lysine site 115, trimethylated], the entry is “no binding (tested: p-value cutoff of 0.001)”; as for QAVLLPKKT (trimethyl-lysine at lysine site 118 (8th residue of the peptide)) […, H2A_DROME lysine site 118, trimethylated], “no binding (tested: p-value cutoff of 0.001)”.
As for NAARDNKKT (trimethyl-lysine at lysine site 74 (8th residue of the peptide)) […, H2A_DROME lysine site 74, trimethylated], the entry is “no binding (tested: p-value cutoff of 0.001)”; as for YTEHAKRKT (trimethyl-lysine at lysine site 79 (8th residue of the peptide)) […, H4_DROME lysine site 79, trimethylated], “no binding (tested: p-value cutoff of 0.001)”; as for MAGGKAGKD (trimethyl-lysine at lysine site 7 (8th residue of the peptide)) […, H2AV_DROME lysine site 7, trimethylated], “no binding (tested: p-value cutoff of 0.001)”.
Next, KGGKGLGKG (trimethyl-lysine at lysine site 12 (8th residue of the peptide)) […, H4_DROME lysine site 12, trimethylated]: “no binding (tested: p-value cutoff of 0.001)”; NLCAIHAKR (trimethyl-lysine at lysine site 115 (8th residue of the peptide)) […, H3_DROME lysine site 115, trimethylated]: “no binding (tested: p-value cutoff of 0.001)”; APATGGVKK (trimethyl-lysine at lysine site 36 (8th residue of the peptide)) […, H3_DROME lysine site 36, trimethylated]: “no binding (tested: p-value cutoff of 0.001)”.
ELAGNASKD (trimethyl-lysine at lysine site 74 (8th residue of the peptide)) […, H2AV_DROME lysine site 74, trimethylated]: the binding result is recorded as “no binding (tested: p-value cutoff of 0.001)”.
Next, GNASKDLKV (trimethyl-lysine at lysine site 77 (8th residue of the peptide)) […, H2AV_DROME lysine site 77, trimethylated]: “no binding (tested: p-value cutoff of 0.001)”; KAGKDSGKA (trimethyl-lysine at lysine site 11 (8th residue of the peptide)) […, H2AV_DROME lysine site 11, trimethylated]: “no binding (tested: p-value cutoff of 0.001)”; ARKSTGGKA (trimethyl-lysine at lysine site 14 (8th residue of the peptide)) […, H3_DROME lysine site 14, trimethylated]: “no binding (tested: p-value cutoff of 0.001)”.
Next, STELLIRKL (trimethyl-lysine at lysine site 64 (8th residue of the peptide)) […, H3_DROME lysine site 64, trimethylated]: “no binding (tested: p-value cutoff of 0.001)”.
As for IYIYKVLKQ (trimethyl-lysine at lysine site 43 (8th residue of the peptide)) […, H2B_DROME lysine site 43, trimethylated], the entry is “no binding (tested: p-value cutoff of 0.001)”; as for LLPGELAKH (trimethyl-lysine at lysine site 105 (8th residue of the peptide)) […, H2B_DROME lysine site 105, trimethylated], “no binding (tested: p-value cutoff of 0.001)”; as for APSTGGVKK (trimethyl-lysine at lysine site 36 (8th residue of the peptide)) […, H33_DROME lysine site 36, trimethylated], “no binding (tested: p-value cutoff of 0.001)”.
On to PATGGVKKP (trimethyl-lysine at lysine site 37 (8th residue of the peptide)) […, H3_DROME lysine site 37, trimethylated], for which the binding entry was “no binding (tested: p-value cutoff of 0.001)”.
Next, KRVTIMPKD (trimethyl-lysine at lysine site 122 (8th residue of the peptide)) […, H3_DROME lysine site 122, trimethylated]: “no binding (tested: p-value cutoff of 0.001)”; IHKSLIGKK (trimethyl-lysine at lysine site 120 (8th residue of the peptide)) […, H2AV_DROME lysine site 120, trimethylated]: “no binding (tested: p-value cutoff of 0.001)”.
Next, REIAQDFKT (trimethyl-lysine at lysine site 79 (8th residue of the peptide)) […, H3_DROME lysine site 79, trimethylated]: “no binding (tested: p-value cutoff of 0.001)”; GNAARDNKK (trimethyl-lysine at lysine site 73 (8th residue of the peptide)) […, H2A_DROME lysine site 73, trimethylated]: “no binding (tested: p-value cutoff of 0.001)”; PDTGISSKA (trimethyl-lysine at lysine site 54 (8th residue of the peptide)) […, H2B_DROME lysine site 54, trimethylated]: “no binding (tested: p-value cutoff of 0.001)”.
For the molecule GKDSGKAKA (trimethyl-lysine at lysine site 13 (8th residue of the peptide)) […, H2AV_DROME lysine site 13, trimethylated], the binding result is “no binding (tested: p-value cutoff of 0.001)”.
Next, TGGKAPRKQ (trimethyl-lysine at lysine site 18 (8th residue of the peptide)) […, H3_DROME lysine site 18, trimethylated]: “no binding (tested: p-value cutoff of 0.001)”; LARRGGVKR (trimethyl-lysine at lysine site 44 (8th residue of the peptide)) […, H4_DROME lysine site 44, trimethylated]: “no binding (tested: p-value cutoff of 0.001)”.
Next, SRLAHYNKR (trimethyl-lysine at lysine site 82 (8th residue of the peptide)) […, H2B_DROME lysine site 82, trimethylated]: “no binding (tested: p-value cutoff of 0.001)”; GLGKGGAKR (trimethyl-lysine at lysine site 16 (8th residue of the peptide)) […, H4_DROME lysine site 16, trimethylated]: “no binding (tested: p-value cutoff of 0.001)”; EELDSLIKA (trimethyl-lysine at lysine site 101 (8th residue of the peptide)) […, H2AV_DROME lysine site 101, trimethylated]: “no binding (tested: p-value cutoff of 0.001)”.
On to PSTGGVKKP (trimethyl-lysine at lysine site 37 (8th residue of the peptide)) […, H33_DROME lysine site 37, trimethylated], for which the binding result is reported as “no binding (tested: p-value cutoff of 0.001)”.
As for RNDEELNKL (trimethyl-lysine at lysine site 94 (8th residue of the peptide)) […, H2A_DROME lysine site 94, trimethylated], the entry is “no binding (tested: p-value cutoff of 0.001)”.
As for EETRGVLKV (trimethyl-lysine at lysine site 59 (8th residue of the peptide)) […, H4_DROME lysine site 59, trimethylated], the entry is “no binding (tested: p-value cutoff of 0.001)”.
